Among the data in PMC6883508 are binding values, retold here.

No constants are given. Whether binding was seen depends on the method and setting. A result given as binding can be weak or reduced; the word gives no strength. Tags and fused reporters may be left off the sequences shown.

The target in this experiment is T1, CUL3a protein from A. thaliana, Gal4 fusion for yeast two-hybrid (A. thaliana) (UniProt Q9ZVH4).
T1 sequence: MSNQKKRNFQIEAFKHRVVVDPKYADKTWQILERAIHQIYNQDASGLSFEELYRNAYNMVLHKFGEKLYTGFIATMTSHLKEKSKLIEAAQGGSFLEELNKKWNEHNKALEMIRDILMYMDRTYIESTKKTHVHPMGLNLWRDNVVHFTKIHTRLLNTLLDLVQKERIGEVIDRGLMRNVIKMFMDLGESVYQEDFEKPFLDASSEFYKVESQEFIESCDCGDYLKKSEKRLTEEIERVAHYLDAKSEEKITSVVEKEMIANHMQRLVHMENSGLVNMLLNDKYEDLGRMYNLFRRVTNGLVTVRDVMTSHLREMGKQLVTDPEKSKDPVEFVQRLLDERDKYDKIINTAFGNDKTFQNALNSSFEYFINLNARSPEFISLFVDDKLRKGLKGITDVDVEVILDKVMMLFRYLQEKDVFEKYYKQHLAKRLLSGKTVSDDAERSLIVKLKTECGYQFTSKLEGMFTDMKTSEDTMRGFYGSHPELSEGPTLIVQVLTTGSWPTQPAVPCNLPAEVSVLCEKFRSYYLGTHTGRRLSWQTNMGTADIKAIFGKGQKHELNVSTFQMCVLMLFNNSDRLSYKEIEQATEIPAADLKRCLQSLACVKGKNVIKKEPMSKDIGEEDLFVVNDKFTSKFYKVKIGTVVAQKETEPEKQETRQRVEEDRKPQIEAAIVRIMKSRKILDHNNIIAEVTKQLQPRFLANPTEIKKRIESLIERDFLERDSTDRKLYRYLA
The experiment in a line: two-hybrid; yeast strain Hfc7; N-terminal Gal4 AD or BD fusions, both orientations; histidine prototrophy on medium lacking Leu, Trp, His with 13 mM 3-AT, and β-galactosidase assay with X-gal; six colonies each.

As to “TaMAB2 (Triticum aestivum MATH-BTB protein 2), Gal4 fusion for yeast two-hybrid”, the binding result is listed as “binds”.
